Laboratory results taken from US20120129720.
For some of these results: Negatives hold for the conditions tested. For some of these results: At least one result comes from cells or an extract, where the contact may be indirect.

Sequences of proteins named here, by UniProt entry; tags and fusion partners are left off. A change or cut given only in a name is not applied to a line headed by its entry.
UniProt P14174: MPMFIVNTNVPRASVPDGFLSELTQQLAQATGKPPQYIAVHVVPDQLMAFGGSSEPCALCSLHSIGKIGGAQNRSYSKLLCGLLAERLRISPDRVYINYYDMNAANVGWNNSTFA

What was measured:
Test in all cases: ELONA
HT (His-T7 leader-GFP) = HT (His-T7 leader-GFP) (UniProt P42212); details: 3' A20 tail for capture, protein in a lysate after overexpression
[1] = biological target: HTX (His-T7 leader-Xpress-GFP) (UniProt P42212); details: 3' A20 tail for capture; HTX about equal to HT, greater than H; anti-GFP capture; protein in a lysate after overexpression; label: biotin-T20 hybridised to …
H (His-GFP) = H (His-GFP) (UniProt P42212); details: 3' A20 tail for capture; lower signal than HTX and HT; protein in a lysate after overexpression; label: biotin-T20 hybridised to tail
[2] = biological target: TX (T7 leader-Xpress-GFP) (UniProt P42212); details: 3' A20 tail for capture; no His-tag; protein in a lysate after overexpression; label: biotin-T20 hybridised to tail
T (T7 leader-GFP) = T (T7 leader-GFP) (UniProt P42212); details: 3' A20 tail for capture; no His-tag; protein in a lysate after overexpression; label: biotin-T20 hybridised to tail
[3] = biological target: MIF (His-tag removed by enterokinase) (UniProt P14174); details: 3' A20 tail for capture; His-tag removed; anti-MIF capture; purified recombinant protein; protein details: tag cleaved from ATGen His-MIF with enterokinase; label: biotin-T20 hybridised to tail

Row | Sequence | binding result (HT (His-T7 leader-GFP); anti-GFP capture, label: biotin-T20 hybridised to tail (ELISA), variant of shot47) | binding result [1] | binding result (HT (His-T7 leader-GFP); label: biotin-T20 hybridised to tail) | binding result (H (His-GFP)) | binding result [2] | binding result (T (T7 leader-GFP)) | binding result [3]
1 | GGGUAUAUUGGCGCCUUCGUGGAAUGUCAGUGCCUGG [shot47sss] | binds | – | – | – | – | – | –
2 | GGGACGCUCACGUACGCUCACGUCCGAUCGAUACUGGUAUAUUGGCGCCUUCGUGGAAUGUCAGUGCCUGGACGUGCAGU [shot47] | – | binds | binds | binds | no binding | no binding | no binding
